{"source": "patent US20040161426A1", "about": "“Use of IL-6 antagonists in combination with steroids to enhance apoptosis” (priority 2003, published 2004)", "origin": "cited, not measured here", "settings": "animal models of inflammation; cited from earlier work", "note": "At least one compound was matched to its structure with a doubt left."}
{"compound": "CC1(C)O[C@@H]2C[C@H]3[C@@H]4CCC5=CC(=O)C=C[C@]5(C)[C@@]4(F)[C@@H](O)C[C@]3(C)[C@]2(C(=O)CO)O1", "note": "[Triamcinolone acetonide]", "values": [{"measurement": "potency relative to prednisone", "result": "approximately eight times more potent than prednisone"}]}
